Measured data: PubChem BioAssay AID686938 (Drosophila RNAi Screening Center, 2013)
The deposit covers about 23,000 reagents; below is an unselected part of those that have a named target and a result. In the full data, 75 (0.33%) are marked active. 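Raw plate signals without normalisation; calls rest on plate z-scores that were not deposited; ratio present for only 364 wells.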 Unmarked entries are inactive. No sequences are given here. Not stated in the record: the dose of the treatment.

Assay: 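Looking for CRAC channel components and the factors controlling them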 (primary screen)
System: Drosophila S2R+ cells
Reagents: long dsRNA against Drosophila genes, about 0.25 µg dsRNA per well, roughly 10,000 cells
Time to read-out: 5 days of knock-down before the calcium assay
Challenge: thapsigargin (SERCA pump blocker) to empty calcium stores; entry signal taken 4 min after adding it
Measured: 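Duplicate raw fluo-4 intensities per well from a plate reader, at rest and four minutes after thapsigargin emptied calcium stores; entry-to-rest ratio filled for only some wells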
Scale: calcium entry signal: higher = stronger calcium signal after store depletion; entry to resting ratio: higher = more calcium entry relative to resting level; resting calcium signal: higher = higher resting calcium signal
Call rule: 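Hit if the duplicate-averaged plate z-score for entry over resting signal is under −3; wells with weak total dye signal (Fmax z < −2) or more than 5 off-targets removed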
Meaning of the calls: active = strongly reduced calcium entry; inactive = no strong reduction

| gene | amplicon | calcium entry signal, replicate 1 (fluorescence units) | calcium entry signal, replicate 2 (fluorescence units) | entry to resting ratio | resting calcium signal, replicate 1 (fluorescence units) | resting calcium signal, replicate 2 (fluorescence units) |
| --- | --- | --- | --- | --- | --- | --- |
| CG13251 | DRSC11699 | 3.00e7 | 5.09e7 | – | 1.44e7 | 2.29e7 |
| CG31680 | DRSC21878 | 2.64e7 | 4.05e7 | – | 1.31e7 | 1.97e7 |
| CG16953 | DRSC15167 | 3.57e7 | 3.85e7 | – | 1.56e7 | 1.68e7 |
| CG7382 | DRSC03052 | 3.49e7 | – | – | 1.95e7 | – |
| Vsp37A | DRSC18794 | 3.30e7 | 4.50e7 | 2 | 1.64e7 | 1.81e7 |
| CG33752 | DRSC05351 | 3.84e7 | 4.36e7 | – | 1.80e7 | 1.84e7 |
| Mat89Ba | DRSC14540 | 2.34e7 | 2.05e7 | – | 1.36e7 | 1.11e7 |
| PolA2 | DRSC16641 | 3.96e7 | 4.42e7 | – | 2.26e7 | 2.25e7 |
| CG15458 | DRSC20529 | 4.98e7 | 4.79e7 | – | 2.27e7 | 1.93e7 |
| CG11906 | DRSC06096 | 2.84e7 | 2.84e7 | – | 1.26e7 | 1.40e7 |
| CG18622 | DRSC15360 | 2.93e7 | 4.58e7 | – | 1.57e7 | 7.02e7 |
| CG31055 | DRSC13832 | 3.35e7 | 2.65e7 | – | 1.58e7 | 1.39e7 |
| CG4271 | DRSC00649 | 2.44e7 | 3.11e7 | – | 1.14e7 | 1.29e7 |
| CG8379 | DRSC16414 | 4.90e7 | 4.34e7 | – | 2.17e7 | 1.95e7 |
| IntS3 | DRSC21215 | 4.10e7 | 4.49e7 | – | 2.17e7 | 2.03e7 |
| CG1663 | DRSC06613 | 3.75e7 | 2.14e7 | – | 1.88e7 | 1.15e7 |
| CG1663 | DRSC22488 | 4.12e7 | 2.88e7 | – | 2.37e7 | 1.48e7 |
| CG7387 | DRSC10833 | 4.77e7 | 4.37e7 | – | 2.98e7 | 1.69e7 |
| CG34051 | DRSC01739 | 1.66e7 | 3.94e7 | – | 7.85e6 | 2.21e7 |
| JTBR | DRSC08667 | 4.45e7 | 4.03e7 | – | 2.14e7 | 1.96e7 |
| CG4669 | DRSC10440 | 5.09e7 | 5.13e7 | – | 3.10e7 | 1.95e7 |
| cav | DRSC15995 | 3.42e7 | 3.23e7 | – | 1.80e7 | 1.60e7 |
| CG15170 | DRSC02471 | 3.50e7 | 4.62e7 | – | 1.81e7 | 1.86e7 |
| CG11226 | DRSC11639 | 2.71e7 | 4.23e7 | – | 1.35e7 | 1.93e7 |
